Measured values as given in paper PMC10897178, “FANCJ DNA helicase is recruited to the replisome by AND-1 to ensure genome stability” (EMBO Reports, 2024).
These are yes or no findings as the source states them, for the method shown. In cells and extracts the contact can be indirect. Some binding calls cover weakened binding; strength is not graded here. Tags and fused reporters may be left off the sequences shown.

The chains behind the UniProt entries cited, without tags or fusion partners.
UniProt P54132: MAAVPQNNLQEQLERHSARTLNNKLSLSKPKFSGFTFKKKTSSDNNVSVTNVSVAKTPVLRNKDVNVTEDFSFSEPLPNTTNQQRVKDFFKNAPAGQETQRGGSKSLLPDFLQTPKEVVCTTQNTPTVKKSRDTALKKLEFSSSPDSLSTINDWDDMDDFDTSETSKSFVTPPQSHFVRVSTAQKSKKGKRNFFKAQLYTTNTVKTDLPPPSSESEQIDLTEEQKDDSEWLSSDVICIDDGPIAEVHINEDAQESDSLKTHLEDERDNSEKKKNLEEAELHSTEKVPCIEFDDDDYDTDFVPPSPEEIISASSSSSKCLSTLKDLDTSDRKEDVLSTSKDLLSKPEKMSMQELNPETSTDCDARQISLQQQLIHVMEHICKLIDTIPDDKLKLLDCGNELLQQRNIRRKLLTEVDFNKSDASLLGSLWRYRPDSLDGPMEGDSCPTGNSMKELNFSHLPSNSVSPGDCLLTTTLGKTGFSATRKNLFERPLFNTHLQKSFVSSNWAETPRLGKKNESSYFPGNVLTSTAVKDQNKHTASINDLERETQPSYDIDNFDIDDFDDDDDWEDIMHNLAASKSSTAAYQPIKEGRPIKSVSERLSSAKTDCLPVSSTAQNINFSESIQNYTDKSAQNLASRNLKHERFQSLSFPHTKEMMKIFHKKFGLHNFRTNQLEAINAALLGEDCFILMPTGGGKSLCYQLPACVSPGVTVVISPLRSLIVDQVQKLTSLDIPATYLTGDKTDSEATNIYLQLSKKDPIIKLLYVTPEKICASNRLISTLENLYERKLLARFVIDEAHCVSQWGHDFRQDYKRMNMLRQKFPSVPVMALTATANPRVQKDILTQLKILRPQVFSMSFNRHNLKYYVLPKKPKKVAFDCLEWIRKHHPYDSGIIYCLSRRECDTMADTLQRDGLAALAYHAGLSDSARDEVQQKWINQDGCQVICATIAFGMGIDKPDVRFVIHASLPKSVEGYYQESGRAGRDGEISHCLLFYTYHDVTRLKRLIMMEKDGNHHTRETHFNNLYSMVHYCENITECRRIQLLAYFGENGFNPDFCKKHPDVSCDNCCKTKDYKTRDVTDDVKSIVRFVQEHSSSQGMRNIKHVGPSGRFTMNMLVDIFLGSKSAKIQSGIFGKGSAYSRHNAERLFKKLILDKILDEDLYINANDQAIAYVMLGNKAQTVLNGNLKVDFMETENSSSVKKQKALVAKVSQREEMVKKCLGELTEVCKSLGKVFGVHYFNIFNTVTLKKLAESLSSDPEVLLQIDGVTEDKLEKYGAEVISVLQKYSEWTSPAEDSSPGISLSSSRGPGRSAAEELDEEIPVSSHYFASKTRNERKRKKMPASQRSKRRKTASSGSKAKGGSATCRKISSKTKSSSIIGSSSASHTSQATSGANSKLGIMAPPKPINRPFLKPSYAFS

What was measured:
Assay in all cases: co-IP; anti-Flag agarose beads; whole extracts of HeLa FJ-KO cells transiently transfected with Flag-FANCJ WT or mutants; Western blot
[1] = target: T1, Flag-tagged FANCJ D736H (in HeLa FJ-KO cells) (human) (UniProt Q9BX63)
T1 sequence: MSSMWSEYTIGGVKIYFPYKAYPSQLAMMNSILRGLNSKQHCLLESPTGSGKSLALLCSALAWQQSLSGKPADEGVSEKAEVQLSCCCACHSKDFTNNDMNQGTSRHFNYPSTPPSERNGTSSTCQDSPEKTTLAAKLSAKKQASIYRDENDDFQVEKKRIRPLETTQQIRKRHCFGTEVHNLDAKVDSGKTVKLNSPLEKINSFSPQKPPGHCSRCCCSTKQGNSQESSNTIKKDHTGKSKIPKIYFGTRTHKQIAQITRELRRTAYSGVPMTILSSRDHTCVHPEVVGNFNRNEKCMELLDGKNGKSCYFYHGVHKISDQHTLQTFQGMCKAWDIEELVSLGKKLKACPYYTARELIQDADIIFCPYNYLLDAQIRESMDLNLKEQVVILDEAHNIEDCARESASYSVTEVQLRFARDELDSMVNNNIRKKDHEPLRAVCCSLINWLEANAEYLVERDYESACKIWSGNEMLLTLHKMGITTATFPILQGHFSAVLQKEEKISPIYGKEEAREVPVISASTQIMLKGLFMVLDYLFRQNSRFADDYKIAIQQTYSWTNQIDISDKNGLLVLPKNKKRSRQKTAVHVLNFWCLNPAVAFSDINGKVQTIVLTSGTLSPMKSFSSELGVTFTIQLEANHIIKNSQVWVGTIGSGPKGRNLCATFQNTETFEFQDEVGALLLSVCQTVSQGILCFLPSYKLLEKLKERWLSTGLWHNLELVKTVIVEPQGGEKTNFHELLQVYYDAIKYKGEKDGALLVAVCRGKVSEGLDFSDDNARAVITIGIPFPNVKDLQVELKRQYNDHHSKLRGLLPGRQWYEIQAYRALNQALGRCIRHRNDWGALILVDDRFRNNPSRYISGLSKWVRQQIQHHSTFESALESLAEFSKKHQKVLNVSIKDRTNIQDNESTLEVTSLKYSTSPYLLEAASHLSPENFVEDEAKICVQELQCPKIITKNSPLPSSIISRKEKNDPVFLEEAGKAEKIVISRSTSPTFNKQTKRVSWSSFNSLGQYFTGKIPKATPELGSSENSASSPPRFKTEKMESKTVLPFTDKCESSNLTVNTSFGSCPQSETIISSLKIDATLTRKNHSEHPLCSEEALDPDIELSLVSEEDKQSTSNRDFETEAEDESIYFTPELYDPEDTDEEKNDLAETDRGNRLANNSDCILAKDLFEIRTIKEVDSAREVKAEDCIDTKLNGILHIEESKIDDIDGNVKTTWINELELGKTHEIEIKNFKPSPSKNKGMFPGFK

[2] = target: T2, Flag-tagged FANCJ N734H (in HeLa FJ-KO cells) (human) (UniProt Q9BX63)
T2 sequence: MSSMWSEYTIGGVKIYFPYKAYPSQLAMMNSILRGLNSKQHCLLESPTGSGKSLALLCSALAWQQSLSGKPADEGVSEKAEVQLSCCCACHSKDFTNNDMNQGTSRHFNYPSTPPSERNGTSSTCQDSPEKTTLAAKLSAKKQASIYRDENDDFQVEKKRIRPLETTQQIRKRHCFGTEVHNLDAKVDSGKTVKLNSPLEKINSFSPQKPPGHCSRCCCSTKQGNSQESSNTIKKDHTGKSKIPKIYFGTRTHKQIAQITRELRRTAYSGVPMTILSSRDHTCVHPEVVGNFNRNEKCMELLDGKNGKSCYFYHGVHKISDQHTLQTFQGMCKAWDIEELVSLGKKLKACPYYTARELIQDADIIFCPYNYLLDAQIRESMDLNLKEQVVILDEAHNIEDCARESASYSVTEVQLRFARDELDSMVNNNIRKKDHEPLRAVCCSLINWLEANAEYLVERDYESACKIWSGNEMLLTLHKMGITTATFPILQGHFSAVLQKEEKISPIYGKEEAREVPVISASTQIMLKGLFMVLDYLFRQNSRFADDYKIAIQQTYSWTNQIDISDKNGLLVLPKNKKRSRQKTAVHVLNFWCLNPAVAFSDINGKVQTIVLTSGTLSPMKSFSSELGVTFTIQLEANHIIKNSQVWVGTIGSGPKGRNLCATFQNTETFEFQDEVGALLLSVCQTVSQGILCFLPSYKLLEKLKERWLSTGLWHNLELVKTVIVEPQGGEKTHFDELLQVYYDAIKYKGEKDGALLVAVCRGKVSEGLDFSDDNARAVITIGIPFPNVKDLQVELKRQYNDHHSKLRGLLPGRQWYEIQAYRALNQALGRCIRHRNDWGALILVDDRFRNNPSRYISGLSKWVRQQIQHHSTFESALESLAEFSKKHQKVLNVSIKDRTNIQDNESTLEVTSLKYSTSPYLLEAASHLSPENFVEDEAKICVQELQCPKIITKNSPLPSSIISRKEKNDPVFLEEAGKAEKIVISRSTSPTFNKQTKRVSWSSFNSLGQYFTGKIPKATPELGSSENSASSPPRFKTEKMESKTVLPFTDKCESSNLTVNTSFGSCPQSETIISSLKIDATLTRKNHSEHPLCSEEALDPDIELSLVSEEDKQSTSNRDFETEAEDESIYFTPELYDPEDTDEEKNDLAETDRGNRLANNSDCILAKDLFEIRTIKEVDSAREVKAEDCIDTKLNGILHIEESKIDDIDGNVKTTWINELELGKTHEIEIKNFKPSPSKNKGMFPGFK

[3] = target: T3, Flag-tagged FANCJ wild type (in HeLa FJ-KO cells) (human) (UniProt Q9BX63)
T3 sequence: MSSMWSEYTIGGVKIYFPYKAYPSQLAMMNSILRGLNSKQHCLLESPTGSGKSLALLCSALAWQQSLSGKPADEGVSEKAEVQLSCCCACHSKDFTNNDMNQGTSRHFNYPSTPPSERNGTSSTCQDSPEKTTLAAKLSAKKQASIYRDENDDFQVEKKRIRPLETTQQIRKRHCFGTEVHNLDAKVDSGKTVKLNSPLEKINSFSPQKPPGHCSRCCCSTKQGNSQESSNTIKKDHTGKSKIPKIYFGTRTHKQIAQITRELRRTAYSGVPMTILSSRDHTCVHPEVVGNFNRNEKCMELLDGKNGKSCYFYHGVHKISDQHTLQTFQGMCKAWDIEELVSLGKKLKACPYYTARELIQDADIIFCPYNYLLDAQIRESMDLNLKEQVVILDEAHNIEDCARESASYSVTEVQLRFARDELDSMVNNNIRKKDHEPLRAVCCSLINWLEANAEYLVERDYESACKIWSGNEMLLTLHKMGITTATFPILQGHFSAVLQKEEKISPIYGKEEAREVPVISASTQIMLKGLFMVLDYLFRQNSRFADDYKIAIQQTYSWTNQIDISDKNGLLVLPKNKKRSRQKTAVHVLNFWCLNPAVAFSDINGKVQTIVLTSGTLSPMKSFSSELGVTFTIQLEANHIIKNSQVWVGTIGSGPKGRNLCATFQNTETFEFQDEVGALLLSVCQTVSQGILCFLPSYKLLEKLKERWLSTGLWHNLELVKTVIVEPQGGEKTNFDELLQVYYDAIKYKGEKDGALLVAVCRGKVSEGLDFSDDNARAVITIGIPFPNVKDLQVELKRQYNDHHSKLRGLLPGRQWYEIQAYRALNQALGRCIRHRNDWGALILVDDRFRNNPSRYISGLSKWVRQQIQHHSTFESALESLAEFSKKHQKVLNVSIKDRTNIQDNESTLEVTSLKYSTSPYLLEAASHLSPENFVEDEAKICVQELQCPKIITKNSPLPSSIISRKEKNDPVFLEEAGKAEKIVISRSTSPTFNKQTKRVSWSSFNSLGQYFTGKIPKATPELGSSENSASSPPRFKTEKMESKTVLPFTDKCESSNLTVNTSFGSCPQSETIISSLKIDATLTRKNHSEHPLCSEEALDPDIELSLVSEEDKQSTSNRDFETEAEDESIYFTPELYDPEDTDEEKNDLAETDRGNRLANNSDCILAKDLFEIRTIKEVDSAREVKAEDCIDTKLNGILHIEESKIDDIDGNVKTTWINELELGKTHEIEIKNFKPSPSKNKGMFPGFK

binding [1]: binds | binding [2]: binds | binding [3]: binds
Substance: BLM (from UniProt P54132 1-1417)
